Some of these results come from one statement about several compounds together.
Legend:
mTOR/GbL/Raptor (mTORC1) = mTOR/GbL/Raptor (mTORC1) (Homo sapiens, UniProt P42345); experiment: mTOR/GbL/Raptor (mTORC1) ELISA assay; format: biochemical; details: 0.2 nM mTORC1, 10 μM ATP, 50 nM NHis-tagged 4E-BP1, 120 minutes; read-out: mTOR-inhibitory activity
PI3Kα = PI3Kα (Homo sapiens, UniProt P42336); experiment: PI3K biochemical assay (ATP consumption, luciferase-luciferin chemiluminescence); details: 3 nM enzyme, 1 μM ATP, 10 μM PIP2, approximately 2 h; read-out: PI3Kα-inhibitory activity

Row | SMILES | IC50 (mTOR/GbL/Raptor (mTORC1)) [nM] | IC50 (PI3Kα) [nM]
1 | Cc1nc(N)nc(N2CCOc3ccc(-c4cnc(Cl)c(NS(C)(=O)=O)c4)cc3C2)c1C(C)C [Compound 1, N-(5-{4-[2-amino-6-methyl-5-(1-methylethyl)pyrimidin-4-yl]-2,3,4,5-tetrahydro-1,4-benzoxazepin-7-yl}-2-chloropyridin-3-yl)methanesulfonamide] | < 100 | < 100
2 | Cc1nc(N)nc(N2CCOc3ccc(-c4cncc(NS(C)(=O)=O)c4)cc3C2)c1C(C)C [Compound 2, N-(5-{4-[2-amino-6-methyl-5-(1-methylethyl)pyrimidin-4-yl]-2,3,4,5-tetrahydro-1,4-benzoxazepin-7-yl}pyridin-3-yl)methanesulfonamide] | < 100 | < 100
3 | Cc1nc(N)nc(N2CCOc3ccc(-c4cnc(N)c(S(N)(=O)=O)c4)cc3C2)c1C(C)C [Compound 3, 2-amino-5-{4-[2-amino-6-methyl-5-(1-methylethyl)pyrimidin-4-yl]-2,3,4,5-tetrahydro-1,4-benzoxazepin-7-yl}pyridine-3-sulfonamide] | < 100 | < 100
4 | COc1ncc(-c2ccc3c(c2)CN(c2nc(N)nc(C)c2C(C)C)CCO3)cc1NS(C)(=O)=O [Compound 4, N-[5-{4-[2-amino-6-methyl-5-(1-methylethyl)pyrimidin-4-yl]-2,3,4,5-tetrahydro-1,4-benzoxazepin-7-yl}-2-(methyloxy)pyridin-3-yl]methanesulfonamide] | < 100 | < 100
5 | CC1(C)CCc2nc(N)nc(N3CCOc4ccc(-c5cnc(Cl)c(NS(C)(=O)=O)c5)cc4C3)c2C1 [Compound 5, N-{5-[4-(2-amino-6,6-dimethyl-5,6,7,8-tetrahydroquinazolin-4-yl)-2,3,4,5-tetrahydro-1,4-benzoxazepin-7-yl]-2-chloropyridin-3-yl}methanesulfonamide] | < 100 | < 100
6 | Cc1nc(CNCC(F)F)nc(N2CCOc3ccc(-c4cnc(Cl)c(NS(C)(=O)=O)c4)cc3C2)c1C(C)C [Compound 18, N-(2-chloro-5-{4-[2-{[(2,2-difluoroethyl)amino]methyl}-6-methyl-5-(1-methylethyl)pyrimidin-4-yl]-2,3,4,5-tetrahydro-1,4-benzoxazepin-7-yl}pyridin-3-yl)methanesulfonamide] | < 100 | < 100

— patent publication US20140005172A1, “Benzoxazepines as Inhibitors of PI3K/M TOR and Methods of Their Use and Manufacture” (ELELIXIS, INC., priority 2010, published 2014)
